The values below come from PubChem BioAssay AID493014 (National Center for Advancing Translational Sciences (NCATS), 2011).

The other results are listed elsewhere or left out. These are further read-outs of the screen, such as a control signal, another cell line or another target. No call is given for them. Most of these compounds were active or inconclusive in the main read-out, so they are no random draw. Words in brackets tell the shape of the fitted curve; partial curves, single points and poor fits give uncertain potencies.

The nature of this experiment: qHTS Assay to Find Inhibitors of Chronic Active B-Cell Receptor Signaling. To be noted: ABC-DLBCL IkBa-CBG/CBR reporter, luminescence ratio (green luciferase fused to IkBa over red control in TMD8 lymphoma cells), 4 h. Summed up: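 Concentration-response series (up to 46 uM) were applied to TMD8 dual-reporter cells for 4 h at 37C with doxycycline. Green/red ratio, after filter-overlap correction, defined %Activity; red signal alone was normalised to basal cells and zero luminescence.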
On the technique in general: Quantitative high-throughput screening tests each substance at several concentrations.

The mark [1] stands for this setting: measured here: CBR red luminescence, cell number.
Where [2] appears, read: measured here: IkBa-CBG green luminescence.

For orientation: AC50 means the concentration at which the activity in the assay is half-maximal. `COc1ccc(CCN=C(NS(=O)(=O)c2ccc(Cl)cc2)c2ccccc2)cc1`: the AC50 under setting [1] is 5.62 µM [rising, single point]. The same measure, in the same setting: then `Cc1c(CCOC(=O)c2cccc([N+](=O)[O-])c2)sc[n+]1CC(=O)c1ccccc1`, with 5.62 µM [rising, single point].

Regarding `CC1(C)CC(NC(=S)Nc2ccc([N+](=O)[O-])cc2)CC(C)(C)N1`, the AC50 under setting [1] is 7.94 µM [falling, partial curve, poor fit]. Regarding `C(=C\c1ccccc1)/C=N/Nc1nc2ccccc2s1`, under setting [1], the AC50 was 17.8 µM [falling, partial curve, poor fit]. As for `O=C1C=C(/C=C/C2C=CC=CC2)C[C@@H](c2ccc(Cl)cc2)C1` (some centres not stated), under setting [1], the AC50 was 9.2 µM [rising, partial curve, poor fit]. For the molecule `CC(=O)NC(c1ccc(Cl)cc1Cl)c1ccc2cccnc2c1O` (configuration not stated), the AC50 under setting [1] was 22.4 µM [falling, single point]. In the case of `O=C(NNC(=S)Nc1ccc(F)cc1)[C@H]1C[C@@H]1c1ccccc1`, under setting [1], the AC50 was 0.631 µM [rising, partial curve, poor fit]. For the molecule `Cc1ccc(C)c(C(=O)CN2C(=O)C(=O)N(C3CCCC3)C2=O)c1`, the AC50 under setting [1] is 9.2 µM [rising, partial curve]. In the case of `O=C(CNC(=O)c1sc2ccccc2c1Cl)NC1CC1`, under setting [1], the concentration at half-maximal activity (AC50) is 4.47 µM [falling, full curve]. On to `C[n+]1nc(Nc2ccccc2)sc1-c1ccc(C(=O)O)cc1`, for which the AC50 under setting [1] was 14.1 µM [falling, partial curve]. With `O=C(Nc1ccc(Cl)cc1)Nc1ccc(C(=O)N2CCOCC2)cc1`, under setting [1], the AC50 is 7.08 µM [falling, full curve, poor fit].

In the case of `S=C(NCCc1ccccc1)Nc1ccc(Br)cc1`, the AC50 under setting [1] was 4.11 µM [rising, full curve]. As to `N#Cc1c(-c2ccccc2)nc2n(-c3ccccc3)nc(C(=O)Nc3ccccc3)n2c1=O`, under setting [1], the AC50 was 10.3 µM [rising, single point]. For the molecule `NC(=O)c1cc([N+](=O)[O-])ccc1NCC1CCCCC1`, the AC50 under setting [1] was 2.06 µM [rising, full curve, poor fit]. For the molecule `COc1ccccc1N1CCN(C(=O)c2ccc(S(=O)(=O)N3CCCC3)cc2)CC1`, the concentration at half-maximal activity (AC50) under setting [1] is 7.31 µM [falling, partial curve, poor fit]. On to `C[C@H](CO)N1C[C@H](C)[C@@H](CN(C)C(=O)Nc2ccccc2)Oc2c(NS(=O)(=O)c3cccs3)cccc2C1=O`, for which the AC50 under setting [1] was 25.9 µM [rising, single point]. The same measure, in the same setting: then `Cc1ccc(/C(N)=N/OC(=O)N2CCOCC2)cc1`, with 3.98 µM [rising, full curve]. Take `CCOC(=O)C1CCN(C(=O)c2cc3cc(C)ccc3[nH]2)CC1`: the AC50 under setting [1] was 2.51 µM [falling, full curve]. On the same count and under the same terms, as for `O=C(Nc1ccc(Cl)cc1)Nc1ccon1`, the figure is 0.355 µM [rising, full curve, poor fit]. With `Nc1ncnc2c1ncn2[C@@H]1O[C@H](CNCc2cccc(C#Cc3ccccc3)c2)[C@@H](O)[C@H]1O`, the AC50 was 13 µM [rising, partial curve] under setting [1] and 9.2 µM [falling, partial curve] under setting [2]. Turning to `CCOc1ccccc1NC(=O)COn1nnc2ccc(Cl)cc21`, the AC50 under setting [1] was 35.5 µM [falling, single point].

`c1cc2c3c(cccc3c1)NC1(CCC3(CC1)Nc1cccc4cccc(c14)N3)N2`: the AC50 under setting [1] is 11.2 µM [falling, partial curve].

Regarding `Cc1nc(-c2ccc(C(F)(F)F)cc2)sc1C(=O)NN`, under setting [1], the AC50 was 0.447 µM [falling, full curve, poor fit]. As to `CCOC(=O)c1c(C)sc2c1N(C(=O)CCl)c1cc(Cl)ccc1S2`, the AC50 under setting [1] is 3.55 µM [falling, partial curve]. On the same count and under the same terms, as for `CCN(C(=O)Cn1c([N+](=O)[O-])cnc1C)c1ccccc1`, the figure is 31.6 µM [rising, single point]; as for `CCCN(CC(=O)Nc1ccccc1OC)C(=O)c1ccc(S(=O)(=O)Nc2ccccc2)cc1`, 29.1 µM [falling, single point]; as for `CCOc1ccc(CCN2C(=O)c3cccnc3C2=O)cc1OCC`, 11.2 µM [falling, partial curve]. As for `COc1cc2cc(NC(C)=O)cc(NCc3ccccc3)c2cc1OC`, the AC50 under setting [2] is 17.8 µM [falling, partial curve, poor fit].

As to `Nc1nc(-c2ccccc2)cc(C(F)(F)F)n1`, the AC50 under setting [1] is 25.9 µM [falling, partial curve, poor fit]. On the same count and under the same terms, then `O=C(Nc1cc(Cl)cc(Cl)c1)c1ccc(F)c(S(=O)(=O)NC2CCCC2)c1`, with 35.5 µM [falling, single point]; and `O=C(Nc1nccs1)c1cccc(S(=O)(=O)N2CCCC2)c1`, with 1 µM [falling, full curve, poor fit]; and `Cc1cccc2nc(-c3ccccc3)nc(N3CCC(O)(c4ccc(Cl)cc4)CC3)c12`, with 16.4 µM [falling, partial curve]. On to `COc1ccc2nc(SCC(=O)Nc3ccc4c(c3)CCC4)[nH]c2c1`, for which the AC50 under setting [1] is 29.1 µM [falling, single point].

`CN(C)S(=O)(=O)Oc1cc(Cl)ccc1C(=O)Nc1ccc(F)cc1F`: the AC50 under setting [1] was 3.98 µM [rising, partial curve, poor fit]. Still for that read-out and setting: as for `Cc1cc(C(=O)CN2CCC(C)CC2)c(C)n1-c1ccc(F)cc1`, the figure is 5.8 µM [falling, partial curve, poor fit]; as for `Cn1c(=O)[nH]c(=O)c2[nH]c(N(Cc3ccccc3)Cc3ccccc3)nc21`, 35.5 µM [falling, single point]. `CC(=O)Nc1ccc(S(=O)(=O)NC(C)C(=O)NCCc2ccc(F)cc2)cc1` (configuration not stated): the AC50 under setting [1] was 1.58 µM [rising, partial curve]. With `O=C(CCl)Nc1ccccc1C(=O)c1ccccc1`, under setting [1], the AC50 was 22.4 µM [falling, single point]. Same read-out and setting: then `COc1ccccc1N1C(=O)CC(Sc2nc(C)cc(C)n2)C1=O` (configuration not stated), with 0.116 µM [rising, single point]; and `CCCNC(=O)c1ccc2c(c1)C1C3CCC(C3)C1C(c1ccccc1)N2` (configuration not stated), with 9.2 µM [falling, partial curve, poor fit]; and `C=C(C)Cn1cnc2c(oc3nc4c(cc32)CCCC4)c1=O`, with 3.55 µM [rising, full curve].
